No constants are given. Whether binding was seen depends on the method and setting. In cells and extracts the contact can be indirect. Some binding calls cover weakened binding; strength is not graded here.

Sequences of proteins named here, by UniProt entry; tags and fusion partners are left off.
UniProt P26367: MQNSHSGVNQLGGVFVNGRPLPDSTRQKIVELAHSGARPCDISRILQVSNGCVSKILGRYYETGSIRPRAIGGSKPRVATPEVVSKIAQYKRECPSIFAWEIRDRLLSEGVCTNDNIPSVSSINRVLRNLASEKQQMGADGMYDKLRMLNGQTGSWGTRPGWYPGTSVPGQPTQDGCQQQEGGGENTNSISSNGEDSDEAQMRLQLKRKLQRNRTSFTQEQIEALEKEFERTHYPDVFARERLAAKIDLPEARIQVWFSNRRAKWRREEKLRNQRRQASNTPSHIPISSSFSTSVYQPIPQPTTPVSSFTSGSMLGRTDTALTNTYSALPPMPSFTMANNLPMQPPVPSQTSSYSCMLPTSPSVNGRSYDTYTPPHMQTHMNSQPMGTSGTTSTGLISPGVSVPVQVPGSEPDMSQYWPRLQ
UniProt Q01196: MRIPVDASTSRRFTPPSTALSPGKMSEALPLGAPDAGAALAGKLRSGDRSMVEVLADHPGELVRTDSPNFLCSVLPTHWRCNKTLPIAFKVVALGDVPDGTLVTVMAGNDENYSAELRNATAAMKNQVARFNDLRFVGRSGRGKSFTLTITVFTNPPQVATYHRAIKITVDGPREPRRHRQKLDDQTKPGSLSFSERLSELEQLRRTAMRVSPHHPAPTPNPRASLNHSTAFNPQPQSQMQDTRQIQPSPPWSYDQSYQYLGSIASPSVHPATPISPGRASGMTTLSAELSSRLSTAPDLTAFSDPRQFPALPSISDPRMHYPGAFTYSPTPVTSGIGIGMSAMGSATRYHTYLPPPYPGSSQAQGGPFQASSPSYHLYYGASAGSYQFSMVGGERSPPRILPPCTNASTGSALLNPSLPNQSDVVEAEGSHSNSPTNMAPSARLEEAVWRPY
UniProt P84022: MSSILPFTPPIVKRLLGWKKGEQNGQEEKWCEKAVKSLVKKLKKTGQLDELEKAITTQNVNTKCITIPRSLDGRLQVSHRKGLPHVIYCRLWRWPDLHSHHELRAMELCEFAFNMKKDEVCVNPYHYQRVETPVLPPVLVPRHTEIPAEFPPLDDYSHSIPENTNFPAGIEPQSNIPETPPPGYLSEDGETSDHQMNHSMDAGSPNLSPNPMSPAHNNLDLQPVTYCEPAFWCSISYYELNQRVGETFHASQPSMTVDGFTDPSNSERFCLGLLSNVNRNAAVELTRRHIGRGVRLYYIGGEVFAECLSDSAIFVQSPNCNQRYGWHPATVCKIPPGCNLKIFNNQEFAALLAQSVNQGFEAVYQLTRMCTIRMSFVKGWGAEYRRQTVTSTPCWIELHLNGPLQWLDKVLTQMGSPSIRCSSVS

Experiment [1] has as its target PAX6 (human (endogenous in primary LSCs)) (UniProt P26367). The experiment in a line: co-IP; nuclear extract of primary LSCs diluted to 150 mM salt; endogenous proteins immunoprecipitated with anti-PAX6, anti-RUNX1 or anti-pSMAD3 overnight at 4 °C, captured on Protein A/G Dynabeads, western blot. (In western blotting, separated proteins are transferred to a membrane and probed.)

Experiment [2] addresses RUNX1 (human (endogenous in primary LSCs)) (UniProt Q01196). Described as above.

As to “phosphorylated SMAD3 (from UniProt P84022 1-425)”, the binding entry in experiment [1] and in experiment [2] was “binds” each time.
